Key:
Assay in all cases: inhibitory effect on proliferation of mutant FLT3-expressing 32D cell (intracellular ATP level)
Format in all cases: cell-based
[1] = tested on: FLT3-ITD-expressing 32D cell; details: 72 h, Mutation type FLT3-ITD, day 3, ATP level, read-out: Effect determination (IC50 value class), proliferation
Description: (§1) 32D cell line expressing FLT3 gene mutations (FLT3-ITD+D698N, +N676T) found according to the random mutagenesis analysis method was cultured for a predetermined period of time (setting: 37° C. and 5% CO2, steam saturated), and then the cells were plated on a 384-well plate at a cell concentration of 299 cells/well. The random mutagenesis analysis method was carried out according to the following reference document.
(§2) Each of the test substances was dissolved in dimethyl sulfoxide (DMSO) to prepare a DMSO solution containing 20 mmol/L of the test substance. After serially diluting with DMSO and further diluting with a medium containing 10% serum, each of the test substance solutions having a concentration 10 times the final treatment concentration was prepared. […] In addition, a group (a positive control group) in which only DMSO containing no test substance was added to a well in which cells were plated and a group (a negative control group) in which only DMSO containing no test substance was added to a well in which only the medium was added were prepared. On day 3 after adding the test substance solution, the intracellular ATP level was measured with “Cell” ATP Assay reagent Ver. 2 (manufactured by TOYO B-Net Co., Ltd.) to evaluate cell viability.
(§3) The suppression rate was determined by assuming that the amount of luminescence signal in the negative control group corresponded to the suppression of cell viability by 100% and the amount of luminescence signal in the positive control group corresponded to the suppression of cell viability by 0%. […] 3 (manufactured by ITOCHU Techno-Solutions Corporation).

[2] = tested on: FLT3-ITD+N676T-expressing 32D cell; details: 72 h, Mutation type FLT3-ITD + N676T, day 3, ATP level, read-out: Effect determination (IC50 value class), proliferation
Description: as §1, §2, §3

[3] = tested on: FLT3-ITD+D698N-expressing 32D cell; details: 72 h, Mutation type FLT3-ITD + D698N, day 3, ATP level, read-out: Effect determination (IC50 value class), proliferation
Description: as §1, §2, §3

CO[C@@H]1[C@H](N(C)C(=O)c2ccccc2)C[C@H]2O[C@]1(C)n1c3ccccc3c3c4c(c5c6ccccc6n2c5c31)C(=O)NC4 [Midostaurin, 4′-N-benzoyl staurosporine, reference compound]
IC50 [1]: 5 to 10 nM | IC50 [2]: 50 to 100 nM | IC50 [3]: 10 to 50 nM

Reference: patent US20210220355A1, “ANTITUMOR AGENT FOR ACUTE MYELOID LEUKEMIA” (FUJIFILM Corporation, priority 2018, published 2021)
